This is an account of results in patent publication US20240228518A1, “NOVEL ORGANOTIN SILICATE COMPOUNDS, PREPARATION METHODS THEREOF AND PHOTORESIST COMPOSITION CONTAINING THE SAME” (JSI SILICONE CO., priority 2022, published 2024).

This series in a line: Electron beam exposure (sensitivity) of thin film from ethyl lactate/acetic acid solution. The following applies: 5 wt % solution in 70% ethyl lactate and 30% acetic acid, 2.38% TMAH.

As to `CC(=O)[O][Sn]([O]C(C)=O)([O]C(C)=O)[O][Si]([O][Sn]([O]C(C)=O)([O]C(C)=O)[O]C(C)=O)([O][Sn]([O]C(C)=O)([O]C(C)=O)[O]C(C)=O)[O][Sn]([O]C(C)=O)([O]C(C)=O)[O]C(C)=O` [Example 14, tetrakis(triacetoxystannyl) silicate], the Photoresist tone result (electron beam 1-789 μC/cm^2) is reported as “negative tone”. Also, the D100 value (electron beam) amounted to 106 μC/cm^2.
